Test results reported in patent publication US20180221513A1, “CONTRAST-AGENT-LABELED PEPTIDE AMPHIPHILE NANOFIBERS” (Northwestern University, priority 2015, published 2018).
Not every detail of the peptide structures is certain; ends, links or a residue may be inferred. Some results were stated once for a whole list of compounds, not compound by compound.

Columns and labels:
Type in all cases: physicochemical
[1] = T1 and T2 relaxivity (r1, r2) at 1.41 T, Bruker Minispect relaxometer; details: 1.41 tesla
Protocol: Using a Bruker Minispect relaxometer operating at 1.41 T, T1 and T2 relaxivity values (r1 and r2) were determined for each agent (Table 1). […] Thermal annealing followed by addition of CaCl2 caused complex changes in the observed agent relaxivity (Table 1). […] This increased accessibility is consistent with a more extended molecular structure as indicated by SAXS.
All concentrations used in relaxivity determination were obtained using ICP-MS. Samples were digested using ACS reagent grade nitric acid (70%) for a least 2 hours at 70° C. Samples were diluted in filtered, deionized water. A standard containing the elements Bi, Ho, In, Li, Sc, Tb, and Y was added to a final concentration of 5 ng/mL (Inorganic Ventures, Christiansburg, Va., USA). Final nitric acid concentration was 3%. The instrument was calibrated using a serial dilution of Gd(III) standards (Inorganic Ventures, Christiansburg, Va., USA) with nitric acid and internal standard concentrations identical to the samples. Calibration was conducted with 1.000, 5.000, 10.00, 20.00, 50.00, 100.0, and 200.0 ng/mL Gd(III) standards.
T1 Measurements were performed at 1.41 T with a Bruker Minispect mq60 magnet, using an inversion recovery sequence. T2 measurements were acquired using a Carr-Purcell-Meiboom-Gill (CPMG) pulse sequence. PAs were weighed out and dissolved in Millipore water to form 1 mg/mL solutions, and then these solutions were serial diluted to 0.5, 0.25, 0.125, 0.05, and 0.01 mg/mL concentrations. For each concentration, T1 and T2 were measured. These solution concentrations were then measured using ICP-MS for relaxivity determination. Samples were lyophilized and resuspended in 50 mM Tris and 150 mM NaCl buffer. These were then adjusted using small volumes of 0.1 M NaOH to reach pH 7.4. T1 and ICP-MS measurements were then taken of these solutions. The relaxometer tubes were heated at 80° C. for 30 min in a water bath. The bath was allowed to come to room temperature over several hours. T1 times were measured. Finally, 100 μL of 20 mM CaCl2 solution was added to each tube. The tubes were vortex-mixed and allowed to stand for 20 minutes. ICP-MS and T1 measurements were conducted once more.

[2] = 1H NMRD profiles, fits with modified Florence approach; details: fits at 37° C.
Protocol: ^1NMRD profiles were collected with a Stelar Spinmaster FFC-2000-1T fast field cycling relaxometer in the 0.01-40 MHz proton Larmor frequency range, at 293 and 310 K. Longitudinal relaxation rates were measured with an error smaller than 1%. Proton relaxivities were calculated by subtracting the diamagnetic contribution of the peptide nanofibers in the absence of Gd(III) from the relaxation rates of the paramagnetic samples, and normalizing to 1 mM Gd(III) concentration. The profiles were analyzed using the Freed model for outer-sphere relaxation (refs. 48, 49; incorporated by reference in their entireties) and the modified Florence NMRD program for the inner-sphere relaxation (refs. 45, 46, 50; incorporated by reference in their entireties). The effect of static ZFS on nuclear relaxation is considered along with transient ZFS, where modulation is responsible for electron relaxation, provided molecular reorientation time is much longer than electron relaxation time (refs 51,52; incorporated by reference in their entireties). In order to establish which parameter was dominant in relaxivity changes, NMRD profiles of each PA were measured. NMRD profiles for all four PAs at 25° and 37° C. are shown in FIG. 3 with parameter fits obtained using the “modified Florence” approach (refs. 44-46;1 incorporated by reference in their entireties). In the fits, a Lipari-Szabo order parameter S^2 was included to consider the effect of local motions which may superimpose to the global motion of the nanostructures. A smaller S^2 value indicates a less restricted local mobility (e.g., a more flexible linkage between fiber and macrocycle). […] The NMRD fits show τm is primarily responsible for the variation in relaxivity observed upon annealing and Ca2+ cross-linking (Table 2). It is contemplated that annealing and calcium addition change macrocycle presentation on the fiber surface, extending them from the structure with increased peptide packing density and facilitating faster water exchange. […] The ^1H NMRD profiles were analyzed assuming one water molecule regularly coordinated to the Gd(III) ion in the presence of freely diffusing outer-sphere water. The contribution of the coordinated water protons […]) to the relaxation of bulk water protons (R1) largely depends on the τM of coordinated water if τ[…], as expected for Gd(HP-DO3A), according to the following relationship: R1=fM(1/[…]+τM)^-1+Ros where f^M is the mole fraction of ligand nuclei in bound positions and Ros is the outer-sphere contribution. […] is calculated by considering the simultaneous presence of both static (D) and transient (Δt) ZFS, as needed for Gd(III) complexes, through the “modified Florence” NMRD program, 4-6 assuming slow rotation, i.e. the molecular tumbling time τR is much longer than the electron relaxation time Tle. The PA fiber's micron-scale size assures that TR could be fixed to a large, constant value (≥100 ns) in the calculation of the relaxation profile. The ^1H NMRD profiles of PA 1 were repeated at both temperatures using the same Δt value of 0.0142 cm-1, D=0.046 cm-1, θ=42° (angle between the z-axis of the ZFS tensor and the metal-water direction) and a correlation time for electron relaxation τV=24 ps. A distance of closest approach of diffusing water molecules (d) of 7-10 Angstroms should be set, i.e. somewhat larger than usually found in isolated Gd(III) chelates (3.5-4 Å). […]

[3] = Small-angle X-ray scattering (SAXS), core-shell cylinder fits
[4] = Circular dichroism of assembled PA; details: 0.1 mM in Tris buffer pH 7.4
[5] = Cryo-TEM of PA before and after thermal annealing; details: after heating to 80° C. for 30 min and slowly cooling
[6] = Addition of CaCl2 to annealed solution

Q: Which results are given for `CCCCCCCCCCCCCCCC(=O)N[C@H](C(=O)N[C@H](C(=O)N[C@H](C(=O)N[C@@H](C)C(=O)N[C@@H](C)C(=O)N[C@@H](C)C(=O)N[C@@H](CCC(=O)O)C(=O)N[C@@H](CCC(=O)O)C(=O)N[C@@H](CCC(=O)O)C(=O)NCC(=O)N(CC(=O)N(CC(=O)N(CC(N)=O)Cc1cn(CC(O)CN2CCN(CC(=O)O)CCN(CC(=O)O)CCN(CC(=O)O)CC2)nn1)Cc1cn(CC(O)CN2CCN(CC(=O)O)CCN(CC(=O)O)CCN(CC(=O)O)CC2)nn1)Cc1cn(CC(O)CN2CCN(CC(=O)O)CCN(CC(=O)O)CCN(CC(=O)O)CC2)nn1)C(C)C)C(C)C)C(C)C` (stereo partly shown) (Gd complex, metal not drawn) [PA3]?
A: r1 (T1 relaxivity) [1, 6]: 16.5 ± 0.8 mM⁻¹ s⁻¹; r2 (T2 relaxivity) [1, 6]: 25 ± 1 mM⁻¹ s⁻¹; r1 (T1 relaxivity) ([1]; After Thermal Annealing): 16.4 ± 0.6 mM⁻¹ s⁻¹; r2 (T2 relaxivity) ([1]; After Thermal Annealing): 25.2 ± 0.2 mM⁻¹ s⁻¹; r1 (T1 relaxivity) ([1]; H2O): 16.4 ± 0.6 mM⁻¹ s⁻¹; r2 (T2 relaxivity) ([1]; H2O): 30 ± 2 mM⁻¹ s⁻¹; r1 (T1 relaxivity) ([1]; Tris Buffer (pH 7.4)): 15.8 ± 0.5 mM⁻¹ s⁻¹; r2 (T2 relaxivity) ([1]; Tris Buffer (pH 7.4)): 25.3 ± 0.2 mM⁻¹ s⁻¹; τm (water exchange lifetime), best-fit value ([2]; Annealed): 700 ns; τm (water exchange lifetime), best-fit value ([2]; Buffered): 690 ns; τm (water exchange lifetime), best-fit value ([2]; Ca^2+): 650 ns; S^2 (Lipari-Szabo order parameter), best-fit value [2]: 0.0; τlocal, best-fit value [2]: 4 ns; length of core-shell cylinder (SAXS fit) [3]: ~10 nm; secondary structure (CD) [4]: random coil structure; fiber length (Cryo-TEM) [5]: a few hundred nanometers long
